# From PMC9679992, “Fusicoccin-A Targets Cancerous Inhibitor of Protein Phosphatase 2A by Stabilizing a C-Terminal Interaction with 14-3-3” (ACS Chemical Biology, 2022)
# “Also recorded” adds a separate entry of the source.
# Test system: 14-3-3σΔC
# Assay: X-ray cocrystallization / soaking with 14-3-3σΔC
# Details: ternary complex 14-3-3σΔC/CIP2A/FC-A, PDB 7BMC, 2.0 Å
structure (smiles),measurement,value
"C=CC(C)(C)OC[C@H]1O[C@H](O[C@@H]2C3=C([C@H](C)COC(C)=O)C[C@H](O)[C@]3(C)/C=C3/[C@@H](COC)CC[C@H]3[C@@H](C)[C@H]2O)[C@H](O)[C@@H](OC(C)=O)[C@@H]1O [FC-A, Fusicoccin-A]",contacts in crystal structure,"Polar contacts are established between FC-A and Lys122 and Asp215; also recorded: deeply buried in the hydrophobic groove where amino acids Val46, Phe119, Ile168, Leu218, Ile219, and Leu222 interact with the diterpene moiety"
